Test results taken from the supplement of paper PMC10849652.
This is one part of the list.

Amino acid sequences for entries named in this document (tags omitted). A change or cut given only in a name is not applied to a line headed by its entry.
UniProt Q9BVS4: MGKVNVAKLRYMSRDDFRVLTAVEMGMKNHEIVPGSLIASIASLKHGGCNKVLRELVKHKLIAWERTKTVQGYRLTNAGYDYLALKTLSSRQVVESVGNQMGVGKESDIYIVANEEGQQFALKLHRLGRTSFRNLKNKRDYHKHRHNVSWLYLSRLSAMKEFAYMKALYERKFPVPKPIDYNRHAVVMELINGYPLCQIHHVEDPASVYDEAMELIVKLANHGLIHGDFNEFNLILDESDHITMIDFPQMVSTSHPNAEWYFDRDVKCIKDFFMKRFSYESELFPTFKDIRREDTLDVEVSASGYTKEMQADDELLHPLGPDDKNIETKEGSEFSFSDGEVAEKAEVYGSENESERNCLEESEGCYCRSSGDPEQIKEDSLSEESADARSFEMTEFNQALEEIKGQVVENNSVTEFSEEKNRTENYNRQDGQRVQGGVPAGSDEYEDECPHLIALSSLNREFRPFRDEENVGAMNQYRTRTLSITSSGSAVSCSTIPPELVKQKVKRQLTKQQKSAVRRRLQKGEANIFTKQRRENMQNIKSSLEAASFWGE
UniProt Q8TDP1: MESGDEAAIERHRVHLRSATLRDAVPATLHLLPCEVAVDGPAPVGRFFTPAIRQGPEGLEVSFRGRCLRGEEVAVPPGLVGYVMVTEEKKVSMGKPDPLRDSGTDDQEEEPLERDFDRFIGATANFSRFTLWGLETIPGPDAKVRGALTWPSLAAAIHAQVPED
UniProt Q9P0P0: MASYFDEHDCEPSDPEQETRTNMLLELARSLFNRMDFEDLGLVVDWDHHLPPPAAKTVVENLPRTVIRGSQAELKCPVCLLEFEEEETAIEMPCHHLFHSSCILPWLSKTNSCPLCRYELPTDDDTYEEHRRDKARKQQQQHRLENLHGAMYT
UniProt Q8IXI2: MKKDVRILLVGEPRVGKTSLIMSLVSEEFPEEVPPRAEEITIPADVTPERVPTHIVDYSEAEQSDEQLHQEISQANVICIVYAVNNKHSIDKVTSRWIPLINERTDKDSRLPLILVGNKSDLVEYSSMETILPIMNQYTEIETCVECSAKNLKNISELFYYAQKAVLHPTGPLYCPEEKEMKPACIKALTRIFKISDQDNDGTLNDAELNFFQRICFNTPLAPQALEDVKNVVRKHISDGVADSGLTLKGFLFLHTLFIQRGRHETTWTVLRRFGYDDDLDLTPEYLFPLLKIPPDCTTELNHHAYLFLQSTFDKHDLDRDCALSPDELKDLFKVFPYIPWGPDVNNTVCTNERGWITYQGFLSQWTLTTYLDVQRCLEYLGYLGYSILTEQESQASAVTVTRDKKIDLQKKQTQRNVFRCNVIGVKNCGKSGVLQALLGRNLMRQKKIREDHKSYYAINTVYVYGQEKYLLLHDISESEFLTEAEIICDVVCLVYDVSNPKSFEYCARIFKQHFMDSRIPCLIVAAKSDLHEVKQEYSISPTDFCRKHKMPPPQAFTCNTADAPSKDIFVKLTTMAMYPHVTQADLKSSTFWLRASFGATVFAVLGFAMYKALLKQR
UniProt Q96DM3: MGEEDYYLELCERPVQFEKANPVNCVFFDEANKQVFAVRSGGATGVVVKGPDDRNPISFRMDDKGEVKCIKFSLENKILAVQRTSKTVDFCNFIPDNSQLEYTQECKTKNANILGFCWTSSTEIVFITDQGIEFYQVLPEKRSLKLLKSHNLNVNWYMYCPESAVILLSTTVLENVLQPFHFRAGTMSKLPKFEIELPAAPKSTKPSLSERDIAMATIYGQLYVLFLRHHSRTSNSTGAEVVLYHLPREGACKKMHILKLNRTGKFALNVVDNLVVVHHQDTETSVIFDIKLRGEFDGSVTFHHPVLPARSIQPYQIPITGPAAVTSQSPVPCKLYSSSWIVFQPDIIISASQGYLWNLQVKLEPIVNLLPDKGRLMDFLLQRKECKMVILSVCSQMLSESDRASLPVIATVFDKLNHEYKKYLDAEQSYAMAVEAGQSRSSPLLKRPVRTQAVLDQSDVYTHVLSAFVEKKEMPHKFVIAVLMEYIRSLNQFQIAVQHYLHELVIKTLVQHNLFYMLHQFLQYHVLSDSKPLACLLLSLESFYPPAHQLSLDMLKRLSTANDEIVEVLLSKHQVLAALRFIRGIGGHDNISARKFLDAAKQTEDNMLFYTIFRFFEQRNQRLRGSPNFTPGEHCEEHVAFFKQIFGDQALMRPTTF
UniProt Q05823: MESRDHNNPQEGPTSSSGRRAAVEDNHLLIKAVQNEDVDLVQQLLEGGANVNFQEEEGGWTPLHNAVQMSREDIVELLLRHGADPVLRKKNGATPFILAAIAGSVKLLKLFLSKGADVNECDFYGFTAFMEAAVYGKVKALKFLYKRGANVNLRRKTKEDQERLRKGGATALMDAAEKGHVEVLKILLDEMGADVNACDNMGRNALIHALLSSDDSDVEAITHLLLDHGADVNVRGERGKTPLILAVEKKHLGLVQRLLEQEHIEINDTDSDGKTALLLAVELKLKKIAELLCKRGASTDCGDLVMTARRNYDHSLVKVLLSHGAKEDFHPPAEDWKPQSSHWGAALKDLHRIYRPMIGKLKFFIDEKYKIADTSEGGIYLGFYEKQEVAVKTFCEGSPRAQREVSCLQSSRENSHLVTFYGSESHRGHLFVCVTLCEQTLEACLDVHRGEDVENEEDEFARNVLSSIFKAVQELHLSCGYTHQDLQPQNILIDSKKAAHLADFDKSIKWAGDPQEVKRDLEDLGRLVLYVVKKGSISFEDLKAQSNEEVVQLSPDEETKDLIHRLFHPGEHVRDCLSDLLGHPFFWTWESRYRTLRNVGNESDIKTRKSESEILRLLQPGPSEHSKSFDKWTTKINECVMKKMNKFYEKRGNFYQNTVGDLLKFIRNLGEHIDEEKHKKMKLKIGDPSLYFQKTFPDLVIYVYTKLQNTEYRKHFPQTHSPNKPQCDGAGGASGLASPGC
UniProt Q6R327, whole entry, looked up: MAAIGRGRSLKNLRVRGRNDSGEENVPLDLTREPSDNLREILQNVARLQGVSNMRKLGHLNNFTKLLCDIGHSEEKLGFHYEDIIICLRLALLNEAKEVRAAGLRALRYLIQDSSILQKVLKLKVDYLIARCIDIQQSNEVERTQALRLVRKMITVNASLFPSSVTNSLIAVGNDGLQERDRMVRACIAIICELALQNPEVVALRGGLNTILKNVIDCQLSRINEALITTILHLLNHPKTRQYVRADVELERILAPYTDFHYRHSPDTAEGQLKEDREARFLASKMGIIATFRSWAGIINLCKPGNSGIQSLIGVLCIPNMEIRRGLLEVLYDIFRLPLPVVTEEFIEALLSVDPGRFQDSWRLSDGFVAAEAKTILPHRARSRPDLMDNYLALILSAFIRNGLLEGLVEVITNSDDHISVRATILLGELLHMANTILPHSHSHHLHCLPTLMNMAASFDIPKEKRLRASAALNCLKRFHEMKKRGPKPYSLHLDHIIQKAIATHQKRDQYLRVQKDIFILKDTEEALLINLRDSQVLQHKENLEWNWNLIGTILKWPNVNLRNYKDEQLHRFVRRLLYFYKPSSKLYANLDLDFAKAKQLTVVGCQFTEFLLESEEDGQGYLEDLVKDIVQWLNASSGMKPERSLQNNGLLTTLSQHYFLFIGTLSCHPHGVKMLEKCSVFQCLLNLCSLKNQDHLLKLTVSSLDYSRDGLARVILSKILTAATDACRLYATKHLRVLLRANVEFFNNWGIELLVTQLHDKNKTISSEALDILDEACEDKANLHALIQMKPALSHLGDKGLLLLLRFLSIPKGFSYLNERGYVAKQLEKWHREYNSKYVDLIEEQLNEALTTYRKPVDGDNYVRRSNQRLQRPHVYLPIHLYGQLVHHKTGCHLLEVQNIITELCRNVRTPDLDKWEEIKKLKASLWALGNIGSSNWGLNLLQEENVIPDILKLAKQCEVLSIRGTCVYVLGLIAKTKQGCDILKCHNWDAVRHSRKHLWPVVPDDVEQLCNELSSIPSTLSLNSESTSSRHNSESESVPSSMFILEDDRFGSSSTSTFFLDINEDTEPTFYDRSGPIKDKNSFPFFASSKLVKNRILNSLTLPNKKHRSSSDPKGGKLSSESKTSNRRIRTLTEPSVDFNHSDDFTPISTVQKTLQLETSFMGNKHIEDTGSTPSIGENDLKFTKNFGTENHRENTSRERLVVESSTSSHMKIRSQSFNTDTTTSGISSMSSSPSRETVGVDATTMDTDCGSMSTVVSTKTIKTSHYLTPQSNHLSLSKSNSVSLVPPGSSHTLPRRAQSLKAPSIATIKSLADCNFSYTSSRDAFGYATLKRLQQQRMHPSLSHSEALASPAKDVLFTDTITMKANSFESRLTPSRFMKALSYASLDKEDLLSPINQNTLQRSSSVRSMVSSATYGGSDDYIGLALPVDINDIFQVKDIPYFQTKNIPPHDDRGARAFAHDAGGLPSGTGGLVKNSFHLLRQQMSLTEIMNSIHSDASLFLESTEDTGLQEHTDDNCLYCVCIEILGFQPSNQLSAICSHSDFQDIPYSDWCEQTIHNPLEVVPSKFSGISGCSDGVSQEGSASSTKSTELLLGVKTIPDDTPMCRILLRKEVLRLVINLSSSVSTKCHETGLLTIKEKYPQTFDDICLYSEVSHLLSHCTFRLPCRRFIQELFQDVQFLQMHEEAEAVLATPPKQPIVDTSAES

Assays:
Assay in all cases: log2 fold change, soluble protein after heating vs DMSO (PISA); higher = thermal stabilisation; K562 lysate, 10 uM; active = over 0.2 and 3.5 SD of the protein, either way, in both replicates (recomputed)
vemurafenib = compound: CCCS(=O)(=O)Nc1ccc(F)c(C(=O)c2c[nH]c3ncc(-c4ccc(Cl)cc4)cc23)c1F [vemurafenib]
Outline: (§1)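 The values are log-two fold changes in thermal stability compared with solvent controls and come from duplicates. They were obtained by TMTpro 16plex LC-MS/MS, with channel sums equalised, on the supernatant after 21,000xg for 90 min. That supernatant came from crude K562 extract at 1 mg/mL protein treated with 10 μM compound for 30 min, heated for 3 min across 48°C-58°C, pooled and brought to 0.5% NP-40 at 4°C.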

[1] = compound: CCCS(=O)(=O)Nc1ccc(F)c(C(=O)c2c[nH]c3ncc(Cl)cc23)c1F
Outline: as §1

barasertib = compound: CCN(CCCOc1ccc2c(Nc3cc(CC(=O)Nc4cccc(F)c4)[nH]n3)ncnc2c1)CCOP(=O)(O)O [barasertib]
Outline: as §1

[2] = compound: CC[C@@H]1C(=O)N(C)c2cnc(Nc3ccc(C(=O)NC4CCN(C)CC4)cc3OC)nc2N1C1CCCC1
Outline: as §1

volasertib = compound: CC[C@@H]1C(=O)N(C)c2cnc(Nc3ccc(C(=O)N[C@H]4CC[C@H](N5CCN(CC6CC6)CC5)CC4)cc3OC)nc2N1C(C)C [volasertib]
Outline: as §1

[3] = compound: CCn1c(C(=O)N(C2CC2)C2CC2)cc2c3c(ncn3C)c(Nc3cc(C)n(C)n3)nc21
Outline: as §1

[4] = compound: CCn1cc(-c2ccnc3[nH]c(-c4cccc(CN(C)C)c4)cc23)c(-c2ccc(NC(=O)N(C)C)cc2)n1
Outline: as §1

[5] = compound: CN1CCC(CNc2ccc3ncc(-c4cccc(OC(F)(F)F)c4)n3n2)CC1
Outline: as §1

saracatinib = compound: CN1CCN(CCOc2cc(OC3CCOCC3)c3c(Nc4c(Cl)ccc5c4OCO5)ncnc3c2)CC1 [saracatinib]
Outline: as §1

sotrastaurin = compound: CN1CCN(c2nc(C3=C(c4c[nH]c5ccccc45)C(=O)NC3=O)c3ccccc3n2)CC1 [sotrastaurin]
Outline: as §1

alvocidib = compound: CN1CC[C@H](c2c(O)cc(O)c3c(=O)cc(-c4ccccc4Cl)oc23)[C@H](O)C1 [alvocidib]
Outline: as §1

Tubastatin A = compound: CN1CCc2c(c3ccccc3n2Cc2ccc(C(=O)NO)cc2)C1 [Tubastatin A]
Outline: as §1

[6] = compound: CNC(=O)C1=CC=CC=C1NC2=NC(=NC=C2Cl)NC3=C(C=C(C=C3)N4CCOCC4)OC
Outline: as §1

defactinib = compound: CNC(=O)c1ccc(Nc2ncc(C(F)(F)F)c(NCc3nccnc3N(C)S(C)(=O)=O)n2)cc1 [defactinib]
Outline: as §1

[7] = compound: CNc1nc(-c2ccc3c(N)n[nH]c3c2)cc(N2C[C@@H](C(=O)NC3CCCCC3)CC[C@H]2C)n1
Outline: as §1

encorafenib = compound: COC(=O)N[C@@H](C)CNc1nccc(-c2cn(C(C)C)nc2-c2cc(Cl)cc(NS(C)(=O)=O)c2F)n1 [encorafenib]
Outline: as §1

[8] = compound: COC(=O)[C@H](CCSC)NC(=O)C1=C(C=C(C=C1)NC[C@H](CS)N)C2=CC=CC=C2
Outline: as §1

alisertib = compound: COc1cc(Nc2ncc3c(n2)-c2ccc(Cl)cc2C(c2c(F)cccc2OC)=NC3)ccc1C(=O)O [alisertib]
Outline: as §1

[9] = compound: COc1cc2nc(-c3cc(F)ccc3O)nc(N[C@@H]3CNC[C@H]3C(C)(C)O)c2cc1OC
Outline: as §1

gefitinib = compound: COc1cc2ncnc(Nc3ccc(F)c(Cl)c3)c2cc1OCCCN1CCOCC1 [gefitinib]
Outline: as §1

Measured: log2 fold change

RIOK2 (UniProt Q9BVS4)
inactive: vemurafenib -0.074 | [1] 0.006 | barasertib -0.053 | [2] 0.016 | volasertib -0.026 | [3] -0.03 | [4] -0.115 | [5] 0.066 | saracatinib -0.023 | sotrastaurin 0.04 | alvocidib -0.021 | Tubastatin A -0.098 | defactinib 0.105 | [7] 0.127 | encorafenib -0.025 | [8] 0.029 | alisertib -0.005 | [9] -0.051 | gefitinib -0.011
active: [6] 0.438

RPL19 (UniProt P84098)
inactive: vemurafenib -0.052 | [1] -0.001 | barasertib -0.008 | [2] -0.008 | volasertib -0.022 | [3] 0.01 | [4] 0.046 | [5] -0.097 | saracatinib -0.01 | sotrastaurin 0.004 | alvocidib 0.072 | Tubastatin A -0.015 | [6] -0.008 | defactinib 0.029 | [7] 0.015 | encorafenib 0.012 | [8] -0.017 | alisertib 0.005 | [9] 0.009 | gefitinib -0.031

RPL36A (UniProt P83881)
inactive: vemurafenib 0.017 | [1] -0.051 | barasertib -0.057 | [2] 0.133 | volasertib 0.018 | [3] 0.009 | [4] -0.03 | [5] 0.007 | saracatinib -0.017 | sotrastaurin 0.035 | alvocidib -0.033 | Tubastatin A 0.03 | [6] -0.035 | defactinib 0.031 | [7] 0.027 | encorafenib 0.098 | [8] 0.055 | alisertib 0 | [9] 0.024 | gefitinib -0.027

RPL27 (UniProt P61353)
active: [4] 0.572
inactive: vemurafenib -0.022 | [1] -0.002 | barasertib 0.011 | [2] -0.001 | volasertib -0.008 | [3] -0.001 | [5] -0.079 | saracatinib 0.019 | sotrastaurin -0.015 | alvocidib 0.049 | Tubastatin A 0.009 | [6] -0.015 | defactinib 0.006 | [7] 0.056 | encorafenib -0.015 | [8] 0.012 | alisertib 0.006 | [9] 0.006 | gefitinib -0.023

Two entries drawn at random from the list so far, as already listed:
RPL27 (UniProt P61353)
active: [4] 0.572
inactive: vemurafenib -0.022 | [1] -0.002 | barasertib 0.011 | [2] -0.001 | volasertib -0.008 | [3] -0.001 | [5] -0.079 | saracatinib 0.019 | sotrastaurin -0.015 | alvocidib 0.049 | Tubastatin A 0.009 | [6] -0.015 | defactinib 0.006 | [7] 0.056 | encorafenib -0.015 | [8] 0.012 | alisertib 0.006 | [9] 0.006 | gefitinib -0.023

RIOK2 (UniProt Q9BVS4)
inactive: vemurafenib -0.074 | [1] 0.006 | barasertib -0.053 | [2] 0.016 | volasertib -0.026 | [3] -0.03 | [4] -0.115 | [5] 0.066 | saracatinib -0.023 | sotrastaurin 0.04 | alvocidib -0.021 | Tubastatin A -0.098 | defactinib 0.105 | [7] 0.127 | encorafenib -0.025 | [8] 0.029 | alisertib -0.005 | [9] -0.051 | gefitinib -0.011
active: [6] 0.438

(listing goes on)

RPL27A (UniProt P46776)
inactive: vemurafenib -0.003 | [1] -0.004 | barasertib -0.048 | [2] 0.015 | volasertib -0.02 | [3] -0.005 | [4] -0.068 | [5] 0.033 | saracatinib -0.028 | sotrastaurin -0.001 | alvocidib -0.013 | Tubastatin A 0.053 | [6] -0.036 | defactinib 0.008 | [7] -0.041 | encorafenib -0.01 | [8] -0.006 | alisertib 0.022 | [9] -0.009 | gefitinib -0.029

RPL32 (UniProt P62910)
inactive: vemurafenib -0.082 | [1] 0.02 | barasertib -0.034 | [2] 0.077 | volasertib -0.022 | [3] 0.042 | [4] 0.046 | [5] -0.013 | saracatinib 0.003 | sotrastaurin -0.024 | alvocidib 0.039 | Tubastatin A -0.037 | [6] 0.009 | defactinib 0.087 | [7] 0.02 | encorafenib 0.001 | [8] -0.034 | alisertib 0.004 | [9] -0.023 | gefitinib -0.015

RNASEH2C (UniProt Q8TDP1)
inactive: vemurafenib 0.008 | [1] -0.012 | barasertib 0.042 | [2] -0.048 | volasertib 0 | [3] 0.059 | [4] -0.208 | [5] 0.017 | saracatinib 0.01 | sotrastaurin 0.021 | alvocidib -0.074 | Tubastatin A -0.052 | [6] -0.009 | defactinib -0.001 | [7] -0.042 | encorafenib 0.027 | [8] 0.076 | alisertib 0.049 | [9] -0.018 | gefitinib 0.063

RNF181 (UniProt Q9P0P0)
inactive: vemurafenib -0.06 | [1] 0.025 | barasertib 0.179 | [2] -0.036 | volasertib 0.004 | [3] 0.018 | [4] -0.013 | [5] -0.035 | saracatinib -0.03 | sotrastaurin -0.02 | alvocidib 0 | Tubastatin A 0.021 | [6] 0.037 | defactinib 0.044 | [7] -0.008 | encorafenib 0.029 | [8] -0.201 | alisertib -0.011 | [9] -0.004 | gefitinib -0.083

RPL3 (UniProt P39023)
inactive: vemurafenib -0.018 | [1] -0.003 | barasertib -0.019 | [2] -0.036 | volasertib -0.019 | [3] 0.007 | [4] 0.08 | [5] -0.07 | saracatinib 0.025 | sotrastaurin -0.001 | alvocidib 0.06 | Tubastatin A -0.016 | [6] -0.007 | defactinib 0.024 | [7] -0.06 | encorafenib 0.016 | [8] -0.006 | alisertib -0.004 | [9] -0.019 | gefitinib -0.034

RPL29 (UniProt P47914)
inactive: vemurafenib -0.034 | [1] 0.031 | barasertib -0.019 | [2] 0.083 | volasertib -0.016 | [3] -0.034 | [4] 0.091 | [5] -0.051 | saracatinib -0.127 | sotrastaurin 0.039 | alvocidib 0.054 | Tubastatin A 0.052 | [6] 0.02 | defactinib 0.058 | [7] 0.077 | encorafenib 0.025 | [8] -0.02 | alisertib 0.027 | [9] -0.003 | gefitinib -0.084

RHOT1 isoform 3 (UniProt Q8IXI2)
inactive: vemurafenib 0.053 | [1] 0.03 | barasertib 0.05 | [2] -0.031 | volasertib -0.035 | [3] -0.001 | [4] 0.024 | [5] -0.059 | saracatinib -0.053 | sotrastaurin -0.015 | alvocidib -0.079 | Tubastatin A 0.013 | [6] -0.018 | defactinib 0.018 | [7] -0.003 | encorafenib -0.019 | [8] 0.001 | alisertib 0.028 | [9] -0.01 | gefitinib 0.083

RMC1 (UniProt Q96DM3)
inactive: vemurafenib 0.009 | [1] 0.029 | barasertib 0.003 | [2] 0.028 | volasertib -0.044 | [3] -0.02 | [4] 0 | [5] 0.024 | saracatinib 0.018 | sotrastaurin -0.015 | alvocidib -0.041 | Tubastatin A -0.019 | [6] 0.019 | defactinib 0.049 | [7] -0.019 | encorafenib 0.012 | [8] -0.023 | alisertib 0 | [9] -0.001 | gefitinib 0.005

RPL12 (UniProt P30050)
inactive: vemurafenib -0.007 | [1] -0.006 | barasertib -0.03 | [2] 0.005 | volasertib -0.009 | [3] -0.047 | [4] 0.058 | [5] -0.04 | saracatinib 0.021 | sotrastaurin -0.041 | alvocidib 0.01 | Tubastatin A 0.077 | [6] -0.033 | defactinib -0.023 | [7] 0.034 | encorafenib -0.002 | [8] -0.009 | alisertib 0 | [9] 0.018 | gefitinib -0.015

RNASEL (UniProt Q05823)
inactive: vemurafenib -0.004 | [1] 0.053 | barasertib 0.077 | [2] -0.017 | volasertib -0.103 | [3] 0.012 | [4] -0.006 | [5] -0.025 | saracatinib -0.011 | sotrastaurin 0.024 | alvocidib 0.054 | Tubastatin A -0.094 | [6] -0.034 | defactinib -0.02 | [7] 0.012 | encorafenib 0.029 | [8] 0.144 | alisertib -0.074 | [9] -0.035 | gefitinib 0.061

RICTOR isoform 3 (UniProt Q6R327)
inactive: vemurafenib -0.325 | [1] 0.045 | barasertib -0.076 | [2] 0.041 | volasertib -0.061 | [3] 0.041 | [4] -0.061 | [5] -0.096 | saracatinib 0.033 | sotrastaurin -0.007 | alvocidib 0.141 | Tubastatin A -0.197 | [6] 0.061 | defactinib 0.284 | [7] 0.141 | encorafenib 0.044 | [8] -0.014 | alisertib -0.033 | [9] 0.068 | gefitinib -0.001

RPL13 (UniProt P26373)
inactive: vemurafenib 0.011 | [1] -0.015 | barasertib -0.049 | [2] -0.031 | volasertib -0.01 | [3] -0.018 | [4] -0.076 | [5] 0.045 | saracatinib 0.001 | sotrastaurin -0.001 | alvocidib -0.038 | Tubastatin A 0.035 | [6] -0.036 | defactinib 0.006 | [7] 0.008 | encorafenib -0.009 | [8] 0 | alisertib 0.028 | [9] -0.019 | gefitinib -0.038
